Results reported in PMC12678531.

Protein sequences, listed by entry. Tags and fused reporters are not part of them. Residues count along the entry.
UniProt Q13472, 21-750: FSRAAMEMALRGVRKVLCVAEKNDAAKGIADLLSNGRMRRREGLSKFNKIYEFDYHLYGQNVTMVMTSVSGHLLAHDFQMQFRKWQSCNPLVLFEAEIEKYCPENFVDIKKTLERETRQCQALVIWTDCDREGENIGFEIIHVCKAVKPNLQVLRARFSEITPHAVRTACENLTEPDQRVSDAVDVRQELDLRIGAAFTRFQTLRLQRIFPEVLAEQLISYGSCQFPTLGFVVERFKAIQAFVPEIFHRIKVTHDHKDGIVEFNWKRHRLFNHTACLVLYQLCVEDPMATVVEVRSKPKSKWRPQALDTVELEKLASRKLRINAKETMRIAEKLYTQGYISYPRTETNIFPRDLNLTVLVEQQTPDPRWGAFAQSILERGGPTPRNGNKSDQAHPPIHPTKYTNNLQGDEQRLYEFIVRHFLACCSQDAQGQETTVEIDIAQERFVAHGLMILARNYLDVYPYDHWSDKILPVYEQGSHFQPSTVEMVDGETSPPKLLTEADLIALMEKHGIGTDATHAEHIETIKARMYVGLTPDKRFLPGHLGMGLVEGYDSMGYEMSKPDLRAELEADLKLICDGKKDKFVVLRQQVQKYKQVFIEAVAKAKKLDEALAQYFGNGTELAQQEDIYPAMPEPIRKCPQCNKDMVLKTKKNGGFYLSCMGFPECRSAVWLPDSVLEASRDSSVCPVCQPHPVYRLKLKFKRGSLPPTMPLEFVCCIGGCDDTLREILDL

Molecular target: TOP3α (21-750) (Homo sapiens) (UniProt Q13472)
Test: EMSA
Details: 300 pmol protein, 50 pmol DNA in 10 uL, longer DNA bound more efficiently, EMSA: Beyotime GS005 binding buffer, 37 C, 15 min, 6% PAGE in TBE at 4 C, recombinant protein, residues 21-750, protein details: C-terminal LE-6xHis, label: none for EMSA (GelRed stain)

“CCGAAACCAGACGAGCTACCTAAGAACAGC (double strand) [DNA2 (30 bp)]”: binds more weakly.

The comparison behind a weaker result is the experiment's own reference, which may not be listed here.
